Laboratory results: PubChem BioAssay AID1259405 (NCATS, 2018)
Shown is a random part of about 50,000 deposited reagents. Of all reagents, about 4,000 (8%) are marked active. 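Mouse siRNA library applied to hamster cells; one well for each siRNA.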 The numbers tell different reagents against one gene apart.

Aim: 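Silenced genes that increase secreted GFP made by CHO cells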 (primary screen)
Cells: Chinese hamster CHO-K1 ovary cells with stable secreted eGFP expression
Reagents: single siRNA against mouse genes, 0.8 pmol siRNA per well (2 µl of 400 nM stock)
Time to read-out: 3 days
Read-out: 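Percent of the per-plate non-targeting control median for intracellular GFP per well by laser scanning cytometry and for cell viability by ATP luminescence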
Scale: GFP, % of control: higher = more GFP per well, higher productivity; viability (ATP), % of control: higher = more viable cells (more ATP)
Rule for the call: 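a knock-down is called active if GFP reaches 120% or more of non-targeting control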

The first 2 entries, ahead of the listing:
no.	gene	siRNA no.	GFP, % of control	viability (ATP), % of control	call
1	Or8d6	1	97.1	42.3	inactive
2	Or8d6	2	93.7	53.2	inactive

Main list, from the first entry:
no.	gene	siRNA no.	GFP, % of control	viability (ATP), % of control	call
1	Or8d6	1	97.1	42.3	inactive
2	Or8d6	2	93.7	53.2	inactive
3	Or8d6	3	53.3	55.5	inactive
4	Pcdhgb7	1	79.5	70.2	inactive
5	Pcdhgb7	2	90.2	82.9	inactive
6	Pcdhgb7	3	97.1	71.6	inactive
7	Ppfia2	1	60.5	89	inactive
8	Ppfia2	2	121	98.4	active
9	Tmem39b	1	73.4	24.1	inactive
10	Tmem39b	2	58.9	78.8	inactive
11	Tmem39b	3	88.3	97	inactive
12	Rab39b	1	90.5	110	inactive
13	Rab39b	2	73.9	73.6	inactive
14	Rab39b	3	69	62.3	inactive
15	Mtap	1	68.7	91.9	inactive
16	Mtap	2	48.9	61.9	inactive
17	Mtap	3	98	115	inactive
18	Psmd6	1	46.1	13.5	inactive
19	Psmd6	2	85.2	74.4	inactive
20	Psmd6	3	36.7	37.4	inactive
21	B4galnt1	1	42.8	62.6	inactive
22	B4galnt1	2	204	110	active
23	Alx3	1	104	90.7	inactive
24	Alx3	2	89.9	57.3	inactive
25	Alx3	3	115	80.9	inactive
26	Ampd2	1	99.8	90.1	inactive
27	Ampd2	2	63.6	74.2	inactive
28	Ampd2	3	126	85.3	active
29	Rbm18	1	105	69.3	inactive
30	Rbm18	2	92.4	88.1	inactive
31	Rbm18	3	80.8	81.9	inactive
32	Ly6d	1	63.6	48.1	inactive
33	Ly6d	2	72.2	61.6	inactive
34	Ly6d	3	105	56.2	inactive
